From US20200147120A1 (NATIONAL UNIVERSITY CORPORATION CHIBA UNIVERSITY, published 2020)
These are yes or no findings as the source states them, for the method shown. Some entries that bind do so weakly or less than the wild type.

By UniProt entry, the sequences of proteins in these tests, tags left out.
UniProt Q96GM5: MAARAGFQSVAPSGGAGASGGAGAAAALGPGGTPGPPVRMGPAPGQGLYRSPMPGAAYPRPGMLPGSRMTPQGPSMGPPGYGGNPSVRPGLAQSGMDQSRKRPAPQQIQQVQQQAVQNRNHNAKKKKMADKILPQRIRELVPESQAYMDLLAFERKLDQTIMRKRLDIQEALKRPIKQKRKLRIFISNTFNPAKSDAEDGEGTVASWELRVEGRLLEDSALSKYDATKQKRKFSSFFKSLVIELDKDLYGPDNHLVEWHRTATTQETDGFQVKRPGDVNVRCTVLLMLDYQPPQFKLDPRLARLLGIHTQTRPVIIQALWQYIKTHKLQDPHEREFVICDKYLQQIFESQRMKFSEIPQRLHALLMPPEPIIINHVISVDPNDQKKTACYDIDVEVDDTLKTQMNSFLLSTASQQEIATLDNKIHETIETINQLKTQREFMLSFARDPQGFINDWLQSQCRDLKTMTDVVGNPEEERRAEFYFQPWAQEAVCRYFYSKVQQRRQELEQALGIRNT
UniProt Q12824: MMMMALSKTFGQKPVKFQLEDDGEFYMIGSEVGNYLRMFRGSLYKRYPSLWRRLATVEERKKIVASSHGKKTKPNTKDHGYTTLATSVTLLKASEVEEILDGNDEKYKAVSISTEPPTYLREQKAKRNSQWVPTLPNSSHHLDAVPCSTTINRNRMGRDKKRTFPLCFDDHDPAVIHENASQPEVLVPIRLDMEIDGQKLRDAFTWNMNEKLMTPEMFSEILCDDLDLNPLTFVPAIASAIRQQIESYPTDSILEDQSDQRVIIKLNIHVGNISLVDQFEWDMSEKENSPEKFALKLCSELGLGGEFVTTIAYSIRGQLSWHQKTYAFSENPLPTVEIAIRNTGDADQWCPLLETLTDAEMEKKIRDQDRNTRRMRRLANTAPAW

Key:
Assay in all cases: binding test of DPF2 truncation mutants; format not described
NF-κB subunit p52 = molecular target: T1, NF-κB subunit p52 (UniProt Q00653)
T1 sequence (looked up): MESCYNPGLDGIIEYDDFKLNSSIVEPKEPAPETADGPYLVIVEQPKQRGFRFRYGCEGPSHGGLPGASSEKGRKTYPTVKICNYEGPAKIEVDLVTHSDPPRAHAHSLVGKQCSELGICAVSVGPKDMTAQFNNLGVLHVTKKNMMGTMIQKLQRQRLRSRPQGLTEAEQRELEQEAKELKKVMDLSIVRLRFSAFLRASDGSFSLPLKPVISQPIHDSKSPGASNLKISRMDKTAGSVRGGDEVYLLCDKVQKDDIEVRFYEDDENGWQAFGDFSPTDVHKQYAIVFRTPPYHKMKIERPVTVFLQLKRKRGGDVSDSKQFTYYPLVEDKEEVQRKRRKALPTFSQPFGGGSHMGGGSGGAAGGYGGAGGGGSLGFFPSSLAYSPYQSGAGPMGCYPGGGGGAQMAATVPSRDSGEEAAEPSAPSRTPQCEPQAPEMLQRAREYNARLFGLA

BAF60a = BAF60a (UniProt Q96GM5)
Ini1 = Ini1 (UniProt Q12824)

Measured: binding

B1: DPF2-CT1 (CT1 peptide of DPF2, amino acid residues 1 to 84) (peptide)
peptide: MAAVVENVVKLLGEQYYKDAMEQCHNYNARLCAERSVRLPFLDSQTGVAQSNCYIWMEKRHRGPGLASGQLYSYPARRWRKKRR
notes: One of a series of truncation mutants of DPF2
binds: all assays above
